In US20120231994A1, “ANTAGONISM OF HUMAN FORMYL PEPTIDE RECEPTOR FOR TREATMENT OF DISEASE” (NIKAN PHARMACEUTICALS, LLC, priority 2009, published 2012):
At least one compound was matched to its structure with a doubt left.

Target: T1, hFPR (Homo sapiens, UniProt P21462)
T1 sequence (P21462 1-350): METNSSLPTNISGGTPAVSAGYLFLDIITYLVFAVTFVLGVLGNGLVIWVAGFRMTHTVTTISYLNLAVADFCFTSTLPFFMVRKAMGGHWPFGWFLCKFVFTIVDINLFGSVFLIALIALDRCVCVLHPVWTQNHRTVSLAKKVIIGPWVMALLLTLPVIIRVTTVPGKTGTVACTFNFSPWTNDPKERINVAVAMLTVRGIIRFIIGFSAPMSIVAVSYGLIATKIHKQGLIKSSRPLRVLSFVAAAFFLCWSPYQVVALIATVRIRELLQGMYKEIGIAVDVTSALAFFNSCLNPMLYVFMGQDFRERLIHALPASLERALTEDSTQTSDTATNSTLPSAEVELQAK
Assay: radionuclide binding competition assay using fMLF peptide as internal standard
Settings: compared with CsH
Source text: Provided herein is the use of formyl peptide receptor antagonists in the therapy of diseases or disorders involving inappropriate, exaggerated, or prolonged neutrophil response (i.e. recruitment and/or activation). […] Thus the cyclosporins of this invention include dihydroCsH, as well as compounds of Formula I that maintain FPR inhibitory activity.

## CCCC[C@@H](C)[C@@H](O)[C@H]1C(=O)N[C@@H](CC)C(=O)N(C)CC(=O)N(C)[C@@H](CC(C)C)C(=O)N[C@@H](C(C)C)C(=O)N(C)[C@@H](CC(C)C)C(=O)N[C@@H](C)C(=O)N[C@H](C)C(=O)N(C)[C@@H](CC(C)C)C(=O)N(C)[C@@H](CC(C)C)C(=O)N(C)[C@H](C(C)C)C(=O)N1C [dihydroCsH, Dihydrocyclosporin H]
  effect of reduction of the MeBmt double bond on the apparent IC50 in binding assays of formyl peptide to the human formyl peptide receptor: no effect
